How the values were obtained:
CD8+ T cells = test: exogenous autologous normal donor restimulation assay, TNFα/IFNγ double positive CD8+ T cells by flow cytometry; format: cell-based, human
Method: (§1) The immunogenicity of neoantigens was assessed using the exogenous autologous normal donor restimulation assay. […] The lyophilized peptides were solubilized in 100% DMSO.
CD1c+ Dendritic Cells (CD1c+DC) isolated from human healthy PBMCs were thawed using media (IMDM (Gibco) supplemented with glutamine, HEPES, 5% human serum (Sigma), and 1× Pen-Strep). DC cells were resuspended in media supplemented with IL-4 (Peprotech, 20 ng/mL) and GM-CSF (Gibco, 20 ng/mL), plated in 6 well microplates, and rested overnight at 37° C. and 5% CO2 incubator. The following day, DC cells were counted and plated in a 96 well round bottom microplate at a concentration of 30,000 viable cells per well. Lyophilized neoantigen peptide pools (15-mer peptides with 8-mer overlapping peptide sequences) were solubilized in 100% DMSO with a stock concentration of 20 mg/mL Neoantigen peptides pools were added to DCs for a final concentration of 10 μg/mL and rested for 2 hours at 37° C. and 5% CO2 incubator. CEF Peptide Pool “Plus” (Cellular Technologies, Ltd.) was utilized as a positive control (each viral peptide at a final concentration of 4 ug/ml) and DMSO at the same final concentration (0.05%) as the experimental peptides was utilized as a negative control. After 2 hours, DC cells were irradiated with 50 gray of ionizing radiation. Autologous CD3+ Pan-T cells isolated from human normal PBMCs were thawed using media. Following irradiation, autologous Pan-T cells were added to the irradiated DCs at 300,000 viable cells per well. Human IL-15 (Peprotech) was added to all wells at final concentration of 10 ng/ml. Plates were incubated at 37° C. and 5% CO2 incubator for a total of 12 days. […]
(§2) On Day 11, cells were re-stimulated with identical experimental peptide pools or controls, at same concentration as peptide stimulation on Day 1. […] Cells were washed and resuspended in stain buffer, analyzed, and recorded in a BD Celesta flow cytometer.
(§3) Flow cytometry analysis was conducted on FlowJo v10.6 software. […] The CD8+ and CD4+ T cells were analyzed for TNFα and IFNγ expression. […]

CD4+ T cells = test: exogenous autologous normal donor restimulation assay, TNFα/IFNγ double positive CD4+ T cells by flow cytometry; format: cell-based, human; settings: donor independent, peptide pool 10 μg/mL, healthy donors
Method: as §1
CD1c+ Dendritic Cells (CD1c+DC) isolated from human healthy PBMCs were thawed using media (IMDM (Gibco) supplemented with glutamine, HEPES, 5% human serum (Sigma), and 1× Pen-Strep). DC cells were resuspended in media supplemented with IL-4 (Peprotech, 20 ng/mL) and GM-CSF (Gibco, 20 ng/mL), plated in 6 well microplates, and rested overnight at 37° C. and 5% CO2 incubator. The following day, DC cells were counted and plated in a 96 well round bottom microplate at a concentration of 30,000 viable cells per well. Lyophilized neoantigen peptide pools (15-mer peptides with 8-mer overlapping peptide sequences) were solubilized in 100% DMSO with a stock concentration of 20 mg/mL Neoantigen peptides pools were added to DCs for a final concentration of 10 μg/mL and rested for 2 hours at 37° C. and 5% CO2 incubator. […]
as §2, §3

B1: KQYQLTVQMESHSLPQAGVQWHDFVSPQPLPPGFKRFSCLSFLSSWDYRLQPPHLANFFVFLVETGFHHVGQAGLKLLTSDDLPASASQSAGITGVSHHARPNFFFSLLLS (peptide)
chain: KQYQLTVQMESHSLPQAGVQWHDFVSPQPLPPGFKRFSCLSFLSSWDYRLQPPHLANFFVFLVETGFHHVGQAGLKLLTSDDLPASASQSAGITGVSHHARPNFFFSLLLS
notes: neoantigen, alternative splicing of SPATA17
Fold change (CD8+) vs. DMSO (CD8+ T cells; maximum CD8+ T-cell response (TNFα and IFNγ), donor independent, peptide pool 10 μg/mL, healthy donors): 162.59 fold
Frequency (TNFα + IFNγ + CD8 T cells) (CD8+ T cells; maximum CD8+ T-cell response, donor independent, peptide pool 10 μg/mL, healthy donors): 8.78%
Immunogenic (yes/no) (CD8+ T cells; positive if CD8+ and/or CD4+ double positive TNFα/IFNγ frequency >=3-fold over DMSO and at least 0.01%): Yes
Fold change (CD4+) vs. DMSO (CD4+ T cells; maximum CD4+ T-cell response (TNFα and IFNγ)): 89.66 fold
Frequency (TNFα + IFNγ + CD4 T cells) (CD4+ T cells; maximum CD4+ T-cell response): 0.14%

Reference: patent US11945881B2, “Neoantigens expressed in ovarian cancer and their uses” (Janssen Biotech, Inc., priority 2020, dated 2024)
